PubChem BioAssay AID743121, NCATS, 2013
In all, the deposit lists about 26,000 reagents; shown is a part drawn at random. Of all reagents, 167 (0.63%) are marked active. 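Calls are per gene from RSA p-values that are not deposited; an individual active-marked siRNA can sensitise only weakly.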 Reagents against one gene are numbered here. Not all columns of the deposit are shown.

- Purpose: 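Knock-downs that sensitise breast cancer cells to camptothecin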 (primary screen)
- System: MDA-MB-231 cells, a human breast cancer line
- Reagent: single siRNA against human genes, 20 nM siRNA (0.8 pmol per well)
- Time to read-out: 120 h (drug added 48 h after transfection, read 72 h later)
- Treatment: camptothecin 20 nM (about EC30) for 72 h; vehicle 0.1% DMSO in parallel plates
- Read-out: 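Cell viability by ATP luminescence (CellTiter-Glo) as % of non-targeting siRNA wells, and the log2 ratio of viability without drug over viability with camptothecin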
- Scale: log2 vehicle/camptothecin viability: higher = stronger sensitisation to camptothecin
- Call rule: 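Each gene scored by redundant siRNA activity (RSA) over its individual siRNA ratios; a gene is called active at p < 0.001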

gene knocked down	reagent no.	log2 vehicle/camptothecin viability	call
HMGN3 (high mobility group nucleosomal binding domain 3)	1	-0.503	inactive
HMGN3 (high mobility group nucleosomal binding domain 3)	2	-0.425	inactive
HMGN3 (high mobility group nucleosomal binding domain 3)	3	0.257	inactive
HMGN3 (high mobility group nucleosomal binding domain 3)	4	0.514	inactive
CDC42BPB (CDC42 binding protein kinase beta)	1	-0.568	inactive
CDC42BPB (CDC42 binding protein kinase beta)	2	0.0913	inactive
CDC42BPB (CDC42 binding protein kinase beta)	3	-0.139	inactive
CDC42BPB (CDC42 binding protein kinase beta)	4	-0.317	inactive
GPR148 (G protein-coupled receptor 148)	1	0.804	inactive
GPR148 (G protein-coupled receptor 148)	2	-0.276	inactive
GPR148 (G protein-coupled receptor 148)	3	0.12	inactive
GPR148 (G protein-coupled receptor 148)	4	-0.16	inactive
FBXO28 (F-box protein 28)	1	-0.622	inactive
FBXO28 (F-box protein 28)	2	0.416	inactive
FBXO28 (F-box protein 28)	3	-0.0156	inactive
FBXO28 (F-box protein 28)	4	0.453	inactive
NR2F1 (nuclear receptor subfamily 2 group F member 1)	1	-0.246	inactive
NR2F1 (nuclear receptor subfamily 2 group F member 1)	2	-0.338	inactive
NR2F1 (nuclear receptor subfamily 2 group F member 1)	3	0.0704	inactive
NR2F1 (nuclear receptor subfamily 2 group F member 1)	4	0.19	inactive
JUND (JunD proto-oncogene, AP-1 transcription factor subunit)	1	0.0874	inactive
JUND (JunD proto-oncogene, AP-1 transcription factor subunit)	2	-0.447	inactive
JUND (JunD proto-oncogene, AP-1 transcription factor subunit)	3	-0.499	inactive
JUND (JunD proto-oncogene, AP-1 transcription factor subunit)	4	-0.305	inactive
PRKD1 (protein kinase D1)	1	-0.287	inactive
PRKD1 (protein kinase D1)	2	-0.221	inactive
PRKD1 (protein kinase D1)	3	0.0555	inactive
PRKD1 (protein kinase D1)	4	0.0726	inactive
COL1A2 (collagen type I alpha 2 chain)	1	0.109	inactive
COL1A2 (collagen type I alpha 2 chain)	2	-0.193	inactive
COL1A2 (collagen type I alpha 2 chain)	3	0.0592	inactive
COL1A2 (collagen type I alpha 2 chain)	4	-0.672	inactive
DHRS3 (dehydrogenase/reductase 3)	1	-0.224	inactive
DHRS3 (dehydrogenase/reductase 3)	2	-3.04	inactive
DHRS3 (dehydrogenase/reductase 3)	3	0.258	inactive
DHRS3 (dehydrogenase/reductase 3)	4	-0.0211	inactive
CHRNA10 (cholinergic receptor nicotinic alpha 10 subunit)	1	-0.221	inactive
CHRNA10 (cholinergic receptor nicotinic alpha 10 subunit)	2	-0.45	inactive
CHRNA10 (cholinergic receptor nicotinic alpha 10 subunit)	3	-0.295	inactive
CHRNA10 (cholinergic receptor nicotinic alpha 10 subunit)	4	-0.377	inactive
ANKRD60 (ankyrin repeat domain 60)	1	-0.29	inactive
ANKRD60 (ankyrin repeat domain 60)	2	-0.0995	inactive
ANKRD60 (ankyrin repeat domain 60)	3	-0.0393	inactive
ASIC1 (acid sensing ion channel subunit 1)	1	-0.525	inactive
ASIC1 (acid sensing ion channel subunit 1)	2	0.139	inactive
ASIC1 (acid sensing ion channel subunit 1)	3	-0.148	inactive
ASIC1 (acid sensing ion channel subunit 1)	4	-0.311	inactive
TCL1A (TCL1 family AKT coactivator A)	1	-0.311	inactive
TCL1A (TCL1 family AKT coactivator A)	2	0.137	inactive
TCL1A (TCL1 family AKT coactivator A)	3	-0.182	inactive
TCL1A (TCL1 family AKT coactivator A)	4	-0.118	inactive
SUOX (sulfite oxidase)	1	-0.0485	inactive
SUOX (sulfite oxidase)	2	-0.544	inactive
SUOX (sulfite oxidase)	3	-0.232	inactive
SUOX (sulfite oxidase)	4	-0.365	inactive
CYB5R1 (cytochrome b5 reductase 1)	1	-0.294	inactive
CYB5R1 (cytochrome b5 reductase 1)	2	0.421	inactive
CYB5R1 (cytochrome b5 reductase 1)	3	-0.143	inactive
CYB5R1 (cytochrome b5 reductase 1)	4	0.129	inactive
ANGPTL1 (angiopoietin like 1)	1	-0.491	inactive
ANGPTL1 (angiopoietin like 1)	2	-0.0891	inactive
ANGPTL1 (angiopoietin like 1)	3	0.163	inactive
ANGPTL1 (angiopoietin like 1)	4	-0.33	inactive
SNRNP25 (small nuclear ribonucleoprotein U11/U12 subunit 25)	1	-0.288	inactive
SNRNP25 (small nuclear ribonucleoprotein U11/U12 subunit 25)	2	-0.282	inactive
GAMT (guanidinoacetate N-methyltransferase)	1	-0.113	inactive
GAMT (guanidinoacetate N-methyltransferase)	2	-0.0183	inactive
GAMT (guanidinoacetate N-methyltransferase)	3	-0.204	inactive
GAMT (guanidinoacetate N-methyltransferase)	4	0.088	inactive

7 neighbouring records already listed, for reference:
gene knocked down	reagent no.	log2 vehicle/camptothecin viability	call
ASIC1 (acid sensing ion channel subunit 1)	4	-0.311	inactive
TCL1A (TCL1 family AKT coactivator A)	1	-0.311	inactive
TCL1A (TCL1 family AKT coactivator A)	2	0.137	inactive
TCL1A (TCL1 family AKT coactivator A)	3	-0.182	inactive
TCL1A (TCL1 family AKT coactivator A)	4	-0.118	inactive
SUOX (sulfite oxidase)	1	-0.0485	inactive
SUOX (sulfite oxidase)	2	-0.544	inactive
